Source: paper PMC9446545
No constants are given. Whether binding was seen depends on the method and setting. For some assays here: Binding seen in cells or lysates may run through a third protein. Some entries that bind do so weakly or less than the wild type. For some assays here: Where a sequence is shown, tags or fusion partners need not be part of it.

Sequences of proteins named here, by UniProt entry; tags and fusion partners are left off.
UniProt O09106: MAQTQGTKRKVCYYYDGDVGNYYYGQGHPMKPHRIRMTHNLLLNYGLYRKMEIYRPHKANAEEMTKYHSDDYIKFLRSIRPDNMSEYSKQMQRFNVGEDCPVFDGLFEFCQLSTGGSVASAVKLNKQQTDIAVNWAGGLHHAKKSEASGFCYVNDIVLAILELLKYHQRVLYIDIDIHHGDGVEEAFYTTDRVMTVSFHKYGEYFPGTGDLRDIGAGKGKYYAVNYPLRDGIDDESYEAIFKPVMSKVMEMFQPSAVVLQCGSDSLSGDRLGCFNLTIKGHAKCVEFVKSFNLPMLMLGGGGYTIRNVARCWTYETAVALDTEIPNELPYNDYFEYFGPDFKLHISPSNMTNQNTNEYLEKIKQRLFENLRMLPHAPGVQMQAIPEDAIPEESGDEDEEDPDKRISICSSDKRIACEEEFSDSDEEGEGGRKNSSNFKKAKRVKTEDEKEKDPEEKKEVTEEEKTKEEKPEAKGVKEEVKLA
UniProt P70288: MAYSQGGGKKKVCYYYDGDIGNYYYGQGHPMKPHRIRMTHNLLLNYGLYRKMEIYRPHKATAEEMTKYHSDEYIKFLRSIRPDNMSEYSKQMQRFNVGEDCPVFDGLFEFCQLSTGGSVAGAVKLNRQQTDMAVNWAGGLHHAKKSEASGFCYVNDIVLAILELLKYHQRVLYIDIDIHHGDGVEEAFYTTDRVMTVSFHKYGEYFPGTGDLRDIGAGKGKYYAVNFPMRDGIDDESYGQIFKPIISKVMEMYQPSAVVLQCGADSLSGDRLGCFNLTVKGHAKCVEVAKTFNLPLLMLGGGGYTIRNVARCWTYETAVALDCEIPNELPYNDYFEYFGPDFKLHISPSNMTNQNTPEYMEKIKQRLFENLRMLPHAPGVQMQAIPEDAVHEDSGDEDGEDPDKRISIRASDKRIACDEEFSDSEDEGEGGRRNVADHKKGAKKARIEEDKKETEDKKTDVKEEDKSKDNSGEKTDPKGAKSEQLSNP
UniProt Q9UBN7: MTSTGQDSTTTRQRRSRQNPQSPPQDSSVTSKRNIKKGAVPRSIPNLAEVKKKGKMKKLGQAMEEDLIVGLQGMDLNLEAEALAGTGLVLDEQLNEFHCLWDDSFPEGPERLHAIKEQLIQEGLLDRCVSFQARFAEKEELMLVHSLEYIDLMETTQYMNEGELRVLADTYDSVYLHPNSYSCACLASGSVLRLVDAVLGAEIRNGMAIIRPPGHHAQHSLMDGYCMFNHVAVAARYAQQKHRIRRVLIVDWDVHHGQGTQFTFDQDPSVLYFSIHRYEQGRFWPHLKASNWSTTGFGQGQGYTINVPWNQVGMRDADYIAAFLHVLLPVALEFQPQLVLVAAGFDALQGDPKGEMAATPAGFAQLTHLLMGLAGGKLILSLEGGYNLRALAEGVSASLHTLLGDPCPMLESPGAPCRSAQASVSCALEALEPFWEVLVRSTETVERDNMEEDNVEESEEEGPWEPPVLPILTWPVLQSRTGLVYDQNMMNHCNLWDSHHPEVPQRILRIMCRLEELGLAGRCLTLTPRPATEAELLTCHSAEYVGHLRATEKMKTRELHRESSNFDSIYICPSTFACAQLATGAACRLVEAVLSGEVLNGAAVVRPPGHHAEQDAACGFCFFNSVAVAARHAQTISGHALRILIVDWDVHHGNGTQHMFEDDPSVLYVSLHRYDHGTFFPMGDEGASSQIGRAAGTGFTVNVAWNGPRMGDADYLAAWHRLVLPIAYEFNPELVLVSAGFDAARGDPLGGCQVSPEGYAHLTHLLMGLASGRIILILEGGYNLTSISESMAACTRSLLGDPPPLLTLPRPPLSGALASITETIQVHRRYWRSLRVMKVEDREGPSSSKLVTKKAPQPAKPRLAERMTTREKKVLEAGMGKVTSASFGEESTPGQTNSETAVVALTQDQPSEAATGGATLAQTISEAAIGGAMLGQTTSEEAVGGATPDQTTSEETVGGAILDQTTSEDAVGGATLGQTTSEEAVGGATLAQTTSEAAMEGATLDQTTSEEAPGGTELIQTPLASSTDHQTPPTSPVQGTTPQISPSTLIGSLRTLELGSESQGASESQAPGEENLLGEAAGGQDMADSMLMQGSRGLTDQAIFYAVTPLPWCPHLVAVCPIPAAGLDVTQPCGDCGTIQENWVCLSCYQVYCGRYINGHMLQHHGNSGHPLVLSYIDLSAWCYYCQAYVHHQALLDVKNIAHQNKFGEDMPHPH
UniProt Q6P5D8: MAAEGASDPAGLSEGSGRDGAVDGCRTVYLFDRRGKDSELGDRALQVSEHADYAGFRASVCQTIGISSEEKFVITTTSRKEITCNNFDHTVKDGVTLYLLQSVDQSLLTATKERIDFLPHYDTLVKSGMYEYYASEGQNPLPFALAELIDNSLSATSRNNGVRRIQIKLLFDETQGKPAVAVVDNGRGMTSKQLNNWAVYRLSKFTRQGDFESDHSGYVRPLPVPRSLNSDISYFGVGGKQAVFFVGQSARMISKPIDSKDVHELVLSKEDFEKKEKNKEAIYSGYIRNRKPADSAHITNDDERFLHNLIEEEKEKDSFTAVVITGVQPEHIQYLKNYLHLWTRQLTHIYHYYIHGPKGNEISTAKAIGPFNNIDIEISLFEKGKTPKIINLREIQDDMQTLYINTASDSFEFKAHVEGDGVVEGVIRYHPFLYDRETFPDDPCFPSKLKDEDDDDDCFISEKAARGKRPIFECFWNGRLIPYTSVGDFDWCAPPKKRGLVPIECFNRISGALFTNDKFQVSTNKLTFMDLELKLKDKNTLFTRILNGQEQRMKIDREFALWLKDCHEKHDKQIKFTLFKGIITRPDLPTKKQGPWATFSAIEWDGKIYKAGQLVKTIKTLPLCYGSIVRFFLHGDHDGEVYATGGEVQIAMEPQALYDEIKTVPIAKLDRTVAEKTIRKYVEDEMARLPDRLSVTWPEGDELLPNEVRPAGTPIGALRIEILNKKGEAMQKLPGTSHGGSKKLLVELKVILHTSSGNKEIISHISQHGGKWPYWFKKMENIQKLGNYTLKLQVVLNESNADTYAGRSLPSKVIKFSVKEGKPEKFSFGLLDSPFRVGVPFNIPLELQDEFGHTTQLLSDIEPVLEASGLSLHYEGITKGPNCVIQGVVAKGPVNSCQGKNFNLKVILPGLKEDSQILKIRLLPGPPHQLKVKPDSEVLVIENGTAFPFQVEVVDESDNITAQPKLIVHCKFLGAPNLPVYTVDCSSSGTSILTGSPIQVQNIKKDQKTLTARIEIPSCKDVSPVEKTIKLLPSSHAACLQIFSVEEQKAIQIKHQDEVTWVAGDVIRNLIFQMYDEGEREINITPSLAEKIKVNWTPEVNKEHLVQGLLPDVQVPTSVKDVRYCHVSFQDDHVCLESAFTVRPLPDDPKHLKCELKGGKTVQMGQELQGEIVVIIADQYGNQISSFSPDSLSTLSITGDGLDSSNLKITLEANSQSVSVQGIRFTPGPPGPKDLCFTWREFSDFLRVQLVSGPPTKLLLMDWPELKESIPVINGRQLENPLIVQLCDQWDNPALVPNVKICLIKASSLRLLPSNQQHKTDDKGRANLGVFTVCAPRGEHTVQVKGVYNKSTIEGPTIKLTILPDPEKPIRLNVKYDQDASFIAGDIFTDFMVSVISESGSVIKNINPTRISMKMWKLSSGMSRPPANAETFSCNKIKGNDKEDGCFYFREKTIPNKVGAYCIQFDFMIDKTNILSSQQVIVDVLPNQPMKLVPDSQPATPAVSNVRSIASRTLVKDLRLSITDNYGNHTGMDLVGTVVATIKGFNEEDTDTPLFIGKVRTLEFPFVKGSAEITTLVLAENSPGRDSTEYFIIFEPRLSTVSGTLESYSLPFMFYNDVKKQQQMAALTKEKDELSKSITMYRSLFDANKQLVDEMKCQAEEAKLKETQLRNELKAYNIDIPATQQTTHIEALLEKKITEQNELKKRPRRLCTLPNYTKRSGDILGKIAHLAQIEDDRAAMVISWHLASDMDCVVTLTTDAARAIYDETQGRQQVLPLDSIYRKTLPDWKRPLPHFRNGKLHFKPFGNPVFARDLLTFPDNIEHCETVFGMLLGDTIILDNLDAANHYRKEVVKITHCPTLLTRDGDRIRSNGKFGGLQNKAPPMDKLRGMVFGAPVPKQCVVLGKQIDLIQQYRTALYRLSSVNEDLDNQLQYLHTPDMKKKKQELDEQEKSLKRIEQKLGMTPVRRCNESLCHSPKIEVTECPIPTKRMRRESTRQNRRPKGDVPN

B1: ZCWPW1 (endogenous, mouse testes) (protein, UniProt Q6IR42 1-630)
chain: MMAALQTHKEYEKGTKKTFAPPTQKLHSEKPQPSSWKEDAPGTSSPEAETKPSLLKASLKKEQKPTTEHGPNRGQERKLKAQDQPAKKKGKERTLTSAEFEEIFQIVLQKSLQECLETSSCVQHIRPTKLDEEPGIVPPATDKKDADPEKVITPDTPKIASSLEEEVNSEMGTSKLGQPVTEPSKKKFNRLSLSKQKKKAEDEKMEKIQDGRECSLKEKQKIVIQDQSQIRGPQKEEESGFGHCVIWVQCSSPKCEKWRQLRGNIDPSVLPDDWSCDQNPDPNYNRCDIPEESWAGCESDVAYASYVPGSIIWAKQYGYPWWPGMIEADPDLGEYFLFASHLDSLPSKYHVTFFGETVSRAWIPVRMLKNFQELSLELVKKCKNKNSNQKLEAAIAMAHRAEQTSIQERVNLFGFWSRYNGADISEEGEDLTLCESNNPESCLEKEEKDLEEEKEEEEEKKDPTLPRPKPAKMQTKKPKSRGPAGGPDGTPKKKTAKKSLVSESTVPPVPTLGGKEEQGNSDLDHPVPKKKFKAPENKTSATNLSEEKEIKIVSKCPTPSAQHGACPLGKEGLVPHMPPTQEAASFPPDDDCSSDLDLEQLMEDIGEPEERGEMQQRGSSEEFLAALFEE
B2: HDAC6, full length mouse, in pGADT7 (two-hybrid prey) (enzyme, UniProt Q9Z2V5 1-1149)
chain: MTSTGQDSSTRQRKSRHNPQSPLQESSATLKRGGKKCAVPHSSPNLAEVKKKGKMKKLSQPAEEDLVVGLQGLDLNPETRVPVGTGLVFDEQLNDFHCLWDDSFPESPERLHAIREQLILEGLLGRCVSFQARFAEKEELMLVHSLEYIDLMETTQYMNEGELRVLAETYDSVYLHPNSYSCACLATGSVLRLVDALMGAEIRNGMAVIRPPGHHAQHNLMDGYCMFNHLAVAARYAQKKHRIQRVLIVDWDVHHGQGTQFIFDQDPSVLYFSIHRYEHGRFWPHLKASNWSTIGFGQGQGYTINVPWNQTGMRDADYIAAFLHILLPVASEFQPQLVLVAAGFDALHGDPKGEMAATPAGFAHLTHLLMGLAGGKLILSLEGGYNLRALAKGVSASLHTLLGDPCPMLESCVVPCASAQTSIYCTLEALEPFWEVLERSVETQEEDEVEEAVLEEEEEEGGWEATALPMDTWPLLQNRTGLVYDEKMMSHCNLWDNHHPETPQRILRIMCHLEEVGLAARCLILPARPALDSELLTCHSAEYVEHLRTTEKMKTRDLHREGANFDSIYICPSTFACAKLATGAACRLVEAVLSGEVLNGIAVVRPPGHHAEPNAACGFCFFNSVAVAARHAQIIAGRALRILIVDWDVHHGNGTQHIFEDDPSVLYVSLHRYDRGTFFPMGDEGASSQVGRDAGIGFTVNVPWNGPRMGDADYLAAWHRLVLPIAYEFNPELVLISAGFDAAQGDPLGGCQVTPEGYAHLTHLLMGLAGGRIILILEGGYNLASISESMAACTHSLLGDPPPQLTLLRPPQSGALVSISEVIQVHRKYWRSLRLMKMEDKEECSSSRLVIKKLPPTASPVSAKEMTTPKGKVPEESVRKTIAALPGKESTLGQAKSKMAKAVLAQGQSSEQAAKGTTLDLATSKETVGGATTDLWASAAAPENFPNQTTSVEALGETEPTPPASHTNKQTTGASPLQGVTAQQSLQLGVLSTLELSREAEEAHDSEEGLLGEAAGGQDMNSLMLTQGFGDFNTQDVFYAVTPLSWCPHLMAVCPIPAAGLDVSQPCKTCGTVQENWVCLTCYQVYCSRYVNAHMVCHHEASEHPLVLSCVDLSTWCYVCQAYVHHEDLQDVKNAAHQNKFGEDMPHSH
B3: HDAC6 (endogenous, mouse testes) (enzyme, UniProt Q9Z2V5 1-1149)
chain: MTSTGQDSSTRQRKSRHNPQSPLQESSATLKRGGKKCAVPHSSPNLAEVKKKGKMKKLSQPAEEDLVVGLQGLDLNPETRVPVGTGLVFDEQLNDFHCLWDDSFPESPERLHAIREQLILEGLLGRCVSFQARFAEKEELMLVHSLEYIDLMETTQYMNEGELRVLAETYDSVYLHPNSYSCACLATGSVLRLVDALMGAEIRNGMAVIRPPGHHAQHNLMDGYCMFNHLAVAARYAQKKHRIQRVLIVDWDVHHGQGTQFIFDQDPSVLYFSIHRYEHGRFWPHLKASNWSTIGFGQGQGYTINVPWNQTGMRDADYIAAFLHILLPVASEFQPQLVLVAAGFDALHGDPKGEMAATPAGFAHLTHLLMGLAGGKLILSLEGGYNLRALAKGVSASLHTLLGDPCPMLESCVVPCASAQTSIYCTLEALEPFWEVLERSVETQEEDEVEEAVLEEEEEEGGWEATALPMDTWPLLQNRTGLVYDEKMMSHCNLWDNHHPETPQRILRIMCHLEEVGLAARCLILPARPALDSELLTCHSAEYVEHLRTTEKMKTRDLHREGANFDSIYICPSTFACAKLATGAACRLVEAVLSGEVLNGIAVVRPPGHHAEPNAACGFCFFNSVAVAARHAQIIAGRALRILIVDWDVHHGNGTQHIFEDDPSVLYVSLHRYDRGTFFPMGDEGASSQVGRDAGIGFTVNVPWNGPRMGDADYLAAWHRLVLPIAYEFNPELVLISAGFDAAQGDPLGGCQVTPEGYAHLTHLLMGLAGGRIILILEGGYNLASISESMAACTHSLLGDPPPQLTLLRPPQSGALVSISEVIQVHRKYWRSLRLMKMEDKEECSSSRLVIKKLPPTASPVSAKEMTTPKGKVPEESVRKTIAALPGKESTLGQAKSKMAKAVLAQGQSSEQAAKGTTLDLATSKETVGGATTDLWASAAAPENFPNQTTSVEALGETEPTPPASHTNKQTTGASPLQGVTAQQSLQLGVLSTLELSREAEEAHDSEEGLLGEAAGGQDMNSLMLTQGFGDFNTQDVFYAVTPLSWCPHLMAVCPIPAAGLDVSQPCKTCGTVQENWVCLTCYQVYCSRYVNAHMVCHHEASEHPLVLSCVDLSTWCYVCQAYVHHEDLQDVKNAAHQNKFGEDMPHSH

How the values were obtained:
[1] = biological target: T1, ZCWPW1-EGFP (mouse Zcwpw1 in pCAG-GFP) (mouse) (UniProt Q6IR42); test: co-IP; HeLa cells transfected with ZCWPW1-GFP plasmid for 48 h, Pierce IP lysis buffer; IP with GFP antibody, protein A/G beads, immunoblot for HDAC1, HDAC2, HDAC6
T1 sequence: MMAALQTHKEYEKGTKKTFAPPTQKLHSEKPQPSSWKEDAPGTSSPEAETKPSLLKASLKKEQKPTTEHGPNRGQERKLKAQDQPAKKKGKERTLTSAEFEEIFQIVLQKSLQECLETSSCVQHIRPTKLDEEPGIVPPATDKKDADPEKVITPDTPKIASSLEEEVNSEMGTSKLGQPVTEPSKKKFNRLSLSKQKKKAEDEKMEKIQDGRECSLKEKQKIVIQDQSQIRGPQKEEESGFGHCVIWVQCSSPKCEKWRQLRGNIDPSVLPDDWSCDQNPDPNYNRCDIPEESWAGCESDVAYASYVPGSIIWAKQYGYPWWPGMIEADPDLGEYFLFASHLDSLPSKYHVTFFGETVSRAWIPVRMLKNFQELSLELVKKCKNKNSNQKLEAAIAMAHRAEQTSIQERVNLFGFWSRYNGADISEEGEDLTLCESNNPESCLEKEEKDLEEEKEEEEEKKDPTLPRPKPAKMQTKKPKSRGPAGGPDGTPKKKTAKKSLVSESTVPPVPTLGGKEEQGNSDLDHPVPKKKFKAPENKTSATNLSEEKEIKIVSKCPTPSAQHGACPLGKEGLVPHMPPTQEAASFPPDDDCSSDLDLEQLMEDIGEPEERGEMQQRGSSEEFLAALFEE

[2] = biological target: T2, ZCWPW1 (endogenous, mouse testes) (mouse (endogenous in mouse testes)) (UniProt Q6IR42); test: co-IP; PD14-PD16 mouse testes protein extracts (WT; Zcwpw1-/- as control), Pierce IP lysis buffer (25 mM Tris-HCl pH 7.4, 150 mM NaCl, 1 mM EDTA, 1% NP-40, 5% glycerin); IP with anti-ZCWPW1 antibody overnight at 4°C, protein A/G beads, immunoblot
T2 sequence: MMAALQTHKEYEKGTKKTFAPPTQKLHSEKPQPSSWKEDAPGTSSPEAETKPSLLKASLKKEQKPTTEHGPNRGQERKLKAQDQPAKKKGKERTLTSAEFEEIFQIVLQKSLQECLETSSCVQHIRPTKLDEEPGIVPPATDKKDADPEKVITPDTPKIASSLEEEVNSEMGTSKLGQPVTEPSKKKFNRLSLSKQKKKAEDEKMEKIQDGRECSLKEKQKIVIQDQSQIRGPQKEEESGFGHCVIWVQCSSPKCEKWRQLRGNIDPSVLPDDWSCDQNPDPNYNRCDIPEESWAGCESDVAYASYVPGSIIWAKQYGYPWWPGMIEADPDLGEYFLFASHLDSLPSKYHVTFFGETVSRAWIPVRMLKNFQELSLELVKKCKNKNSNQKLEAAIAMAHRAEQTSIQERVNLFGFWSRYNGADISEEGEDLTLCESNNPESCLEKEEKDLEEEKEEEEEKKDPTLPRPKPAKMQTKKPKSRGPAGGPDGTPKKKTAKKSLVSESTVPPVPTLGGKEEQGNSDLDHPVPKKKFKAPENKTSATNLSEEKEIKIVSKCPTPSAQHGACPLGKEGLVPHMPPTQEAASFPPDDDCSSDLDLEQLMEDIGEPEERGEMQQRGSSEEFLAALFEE

[3] = biological target: T3, ZCWPW1, full length mouse, in pGBKT7 (two-hybrid bait) (mouse) (UniProt Q6IR42); test: two-hybrid; Zcwpw1 in pGBKT7 as bait, preys in pGADT7, co-transformed into yeast two-hybrid gold strain; selection on SD/-Leu/-Trp/-His
T3 sequence: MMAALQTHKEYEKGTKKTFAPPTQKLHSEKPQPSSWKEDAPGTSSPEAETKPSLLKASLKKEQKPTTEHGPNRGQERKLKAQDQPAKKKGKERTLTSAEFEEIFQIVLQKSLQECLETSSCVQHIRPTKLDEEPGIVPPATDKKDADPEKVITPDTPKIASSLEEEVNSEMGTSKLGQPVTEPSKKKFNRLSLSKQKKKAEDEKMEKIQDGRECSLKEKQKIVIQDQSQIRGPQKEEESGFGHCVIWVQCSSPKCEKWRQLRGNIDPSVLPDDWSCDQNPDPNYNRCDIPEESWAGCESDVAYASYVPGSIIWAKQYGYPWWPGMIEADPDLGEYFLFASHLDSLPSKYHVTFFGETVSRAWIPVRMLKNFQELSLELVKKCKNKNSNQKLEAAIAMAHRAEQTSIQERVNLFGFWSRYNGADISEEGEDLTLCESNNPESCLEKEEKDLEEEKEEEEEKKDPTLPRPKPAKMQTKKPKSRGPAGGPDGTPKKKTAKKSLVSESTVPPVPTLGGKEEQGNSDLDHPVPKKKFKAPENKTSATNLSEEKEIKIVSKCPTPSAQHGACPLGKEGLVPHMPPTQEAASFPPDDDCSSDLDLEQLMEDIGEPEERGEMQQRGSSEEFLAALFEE

[4] = biological target: HDAC1 (endogenous, mouse testes) (mouse (endogenous in mouse testes)) (UniProt O09106); test: co-IP; mouse testes protein extracts, Pierce IP lysis buffer; IP with an HDAC antibody (anti-HDAC1, anti-HDAC2, anti-HDAC6), protein A/G beads, immunoblot for ZCWPW1
[5] = biological target: HDAC2 (endogenous, mouse testes) (mouse (endogenous in mouse testes)) (UniProt P70288); test: as above
[6] = biological target: T4, HDAC6 (endogenous, mouse testes) (mouse (endogenous in mouse testes)) (UniProt Q9Z2V5); test: as above
T4 sequence: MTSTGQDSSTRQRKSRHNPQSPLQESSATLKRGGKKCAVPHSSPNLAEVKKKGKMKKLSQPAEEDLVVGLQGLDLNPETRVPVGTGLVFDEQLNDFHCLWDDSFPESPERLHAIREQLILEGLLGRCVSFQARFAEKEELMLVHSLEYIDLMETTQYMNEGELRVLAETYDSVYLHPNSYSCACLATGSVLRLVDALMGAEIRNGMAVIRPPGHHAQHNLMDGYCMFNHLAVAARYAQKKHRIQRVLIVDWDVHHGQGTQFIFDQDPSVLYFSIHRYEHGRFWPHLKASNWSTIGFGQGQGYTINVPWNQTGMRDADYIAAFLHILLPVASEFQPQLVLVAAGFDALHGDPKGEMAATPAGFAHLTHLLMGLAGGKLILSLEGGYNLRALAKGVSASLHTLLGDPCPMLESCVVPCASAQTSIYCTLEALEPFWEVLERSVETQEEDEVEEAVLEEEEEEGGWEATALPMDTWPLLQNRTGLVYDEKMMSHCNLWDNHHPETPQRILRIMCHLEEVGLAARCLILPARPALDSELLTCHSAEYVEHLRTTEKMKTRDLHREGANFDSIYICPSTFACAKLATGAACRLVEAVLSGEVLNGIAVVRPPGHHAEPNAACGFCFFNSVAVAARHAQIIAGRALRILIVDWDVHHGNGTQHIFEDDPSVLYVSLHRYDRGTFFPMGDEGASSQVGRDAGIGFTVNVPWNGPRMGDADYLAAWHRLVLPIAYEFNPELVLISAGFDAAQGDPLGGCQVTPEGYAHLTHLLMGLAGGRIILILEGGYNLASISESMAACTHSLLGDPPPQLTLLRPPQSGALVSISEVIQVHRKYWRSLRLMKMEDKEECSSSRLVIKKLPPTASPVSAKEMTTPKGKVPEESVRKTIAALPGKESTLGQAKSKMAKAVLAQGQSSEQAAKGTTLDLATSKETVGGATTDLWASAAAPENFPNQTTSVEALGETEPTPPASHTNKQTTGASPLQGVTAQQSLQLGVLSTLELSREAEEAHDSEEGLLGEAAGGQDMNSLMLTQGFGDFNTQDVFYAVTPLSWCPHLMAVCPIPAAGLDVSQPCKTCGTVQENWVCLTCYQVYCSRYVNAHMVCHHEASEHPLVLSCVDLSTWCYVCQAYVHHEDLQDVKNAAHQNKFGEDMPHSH

binding [2] | binding [3] | other results | Molecule
– | – | binding [1]: binds | HDAC6 (in HeLa cells) (from UniProt Q9UBN7 1-1215) (enzyme)
binds | – | – | SMCHD1 (endogenous, mouse testes) (from UniProt Q6P5D8 1-2007)
– | binds | – | SMCHD1, full length mouse, in pGADT7 (two-hybrid prey) (from UniProt Q6P5D8 1-2007)
– | – | binding [4]: binds; binding [5]: binds; binding [6]: binds | B1
– | binds | – | B2
binds | – | – | B3
